Experimental data reported in the supplement of paper PMC10032668.
This is one part of the list. Only hits are listed; about a third recur on repeated control peptides.

The chains behind the UniProt entries cited, without tags or fusion partners.
CAPRIN1, Q14444, UniProt Q14444, whole entry: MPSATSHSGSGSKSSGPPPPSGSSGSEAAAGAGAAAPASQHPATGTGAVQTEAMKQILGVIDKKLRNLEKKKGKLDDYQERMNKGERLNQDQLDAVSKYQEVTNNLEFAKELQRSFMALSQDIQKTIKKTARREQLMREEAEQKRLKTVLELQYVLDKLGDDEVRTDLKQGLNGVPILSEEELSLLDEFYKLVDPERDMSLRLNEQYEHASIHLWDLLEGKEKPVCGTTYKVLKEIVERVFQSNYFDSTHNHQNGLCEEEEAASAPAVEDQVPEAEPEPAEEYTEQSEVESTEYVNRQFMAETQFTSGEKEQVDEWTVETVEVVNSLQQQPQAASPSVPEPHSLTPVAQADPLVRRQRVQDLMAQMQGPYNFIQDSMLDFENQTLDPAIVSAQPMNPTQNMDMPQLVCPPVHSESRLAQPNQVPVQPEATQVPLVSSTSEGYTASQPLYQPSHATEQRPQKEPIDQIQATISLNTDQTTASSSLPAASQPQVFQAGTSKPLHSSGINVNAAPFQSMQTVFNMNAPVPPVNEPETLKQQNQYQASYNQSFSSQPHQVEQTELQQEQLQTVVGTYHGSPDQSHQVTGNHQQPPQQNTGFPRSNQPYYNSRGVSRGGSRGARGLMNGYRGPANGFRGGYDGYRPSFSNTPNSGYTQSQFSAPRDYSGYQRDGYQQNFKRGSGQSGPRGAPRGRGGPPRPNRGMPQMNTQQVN
CKS2, P33552, UniProt P33552, whole entry: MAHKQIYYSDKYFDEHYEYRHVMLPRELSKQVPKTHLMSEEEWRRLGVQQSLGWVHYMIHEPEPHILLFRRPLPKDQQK
FAM168B, A1KXE4, UniProt A1KXE4, whole entry: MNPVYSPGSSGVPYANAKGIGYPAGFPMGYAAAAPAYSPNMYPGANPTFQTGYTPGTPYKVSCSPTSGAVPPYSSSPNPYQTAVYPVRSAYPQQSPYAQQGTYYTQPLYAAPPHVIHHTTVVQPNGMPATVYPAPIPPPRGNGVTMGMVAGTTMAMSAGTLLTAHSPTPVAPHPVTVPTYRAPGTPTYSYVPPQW
HNRNPU, Q00839, UniProt Q00839, whole entry: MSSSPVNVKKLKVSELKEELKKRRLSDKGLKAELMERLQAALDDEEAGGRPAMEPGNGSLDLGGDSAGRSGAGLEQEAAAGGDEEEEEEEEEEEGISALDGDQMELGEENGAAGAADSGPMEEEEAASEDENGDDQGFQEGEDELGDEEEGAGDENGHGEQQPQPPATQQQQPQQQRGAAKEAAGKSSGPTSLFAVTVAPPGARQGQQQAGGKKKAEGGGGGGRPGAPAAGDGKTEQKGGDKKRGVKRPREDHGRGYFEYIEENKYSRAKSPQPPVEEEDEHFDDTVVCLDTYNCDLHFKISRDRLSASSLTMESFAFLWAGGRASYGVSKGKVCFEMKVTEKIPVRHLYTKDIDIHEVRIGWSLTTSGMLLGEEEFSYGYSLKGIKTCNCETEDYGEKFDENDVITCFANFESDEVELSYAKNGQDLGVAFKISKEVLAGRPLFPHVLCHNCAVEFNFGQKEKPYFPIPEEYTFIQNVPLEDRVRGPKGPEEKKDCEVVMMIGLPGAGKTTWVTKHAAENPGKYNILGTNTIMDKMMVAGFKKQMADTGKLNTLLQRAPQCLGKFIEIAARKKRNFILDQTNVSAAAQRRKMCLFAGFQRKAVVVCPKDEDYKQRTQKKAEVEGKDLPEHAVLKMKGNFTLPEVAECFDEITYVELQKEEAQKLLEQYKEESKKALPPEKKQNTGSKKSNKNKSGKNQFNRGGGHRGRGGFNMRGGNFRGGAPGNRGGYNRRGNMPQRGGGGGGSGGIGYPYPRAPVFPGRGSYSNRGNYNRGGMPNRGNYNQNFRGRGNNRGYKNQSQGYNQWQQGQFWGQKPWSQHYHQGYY
KHDRBS1, Q07666, UniProt Q07666, whole entry: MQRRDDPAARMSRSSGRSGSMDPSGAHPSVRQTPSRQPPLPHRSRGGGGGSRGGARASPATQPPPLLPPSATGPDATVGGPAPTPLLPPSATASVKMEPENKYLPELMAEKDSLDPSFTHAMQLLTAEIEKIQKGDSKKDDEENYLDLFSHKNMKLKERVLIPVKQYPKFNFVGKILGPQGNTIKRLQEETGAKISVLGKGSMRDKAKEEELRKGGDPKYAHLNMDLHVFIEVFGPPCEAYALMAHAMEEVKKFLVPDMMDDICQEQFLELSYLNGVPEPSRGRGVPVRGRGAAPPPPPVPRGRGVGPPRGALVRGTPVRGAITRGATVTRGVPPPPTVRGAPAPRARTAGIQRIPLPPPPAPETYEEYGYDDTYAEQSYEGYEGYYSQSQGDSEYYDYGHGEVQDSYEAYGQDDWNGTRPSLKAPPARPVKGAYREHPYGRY
MTPN, P58546, UniProt P58546, whole entry: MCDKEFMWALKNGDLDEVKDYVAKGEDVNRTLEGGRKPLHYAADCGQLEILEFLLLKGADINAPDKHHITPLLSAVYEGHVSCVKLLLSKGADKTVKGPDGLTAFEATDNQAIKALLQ

What was measured:
Experiment in all cases: PRISMA enrichment of interactor (LFQ) in peptide spot vs all other peptide spots (log2 fold change); higher = stronger / more specific binding of the interactor to the peptide
ALYREF, Q86V81 = biological target: ALYREF, Q86V81
Experimental: (§1)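 PRISMA: 15-aa overlapping tiles (offset 8 aa) of 60 microproteins, plus SOS1/GLUT1 control peptides, were spot-synthesized on cellulose membranes in triplicate. Membranes were incubated with benzonase-treated HEK293T lysate, and bound proteins were identified by LC-MS/MS with LFQ. Enrichment is the log2 fold change of each protein in one spot versus all other spots. Only interactors passing the significance cutoff are listed.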

BOLA3, Q53S33 = biological target: BOLA3, Q53S33
Experimental: as §1

C19orf53, Q9UNZ5 = biological target: C19orf53, Q9UNZ5
Experimental: as §1

CAPRIN1, Q14444 = biological target: CAPRIN1, Q14444
Experimental: as §1

CHTOP, Q9Y3Y2 = biological target: CHTOP, Q9Y3Y2
Experimental: as §1

CIRBP, Q14011 = biological target: CIRBP, Q14011
Experimental: as §1

CKS2, P33552 = biological target: CKS2, P33552
Experimental: as §1

COPE, O14579 = biological target: COPE, O14579
Experimental: as §1

CSRP2, Q16527 = biological target: CSRP2, Q16527
Experimental: as §1

DERPC, P0CG12 = biological target: DERPC, P0CG12
Experimental: as §1

EIF4H, Q15056 = biological target: EIF4H, Q15056
Experimental: as §1

EWSR1, Q01844 = biological target: EWSR1, Q01844
Experimental: as §1

FAM168B, A1KXE4 = biological target: FAM168B, A1KXE4
Experimental: as §1

FKBP2, P26885 = biological target: FKBP2, P26885
Experimental: as §1

FUS, P35637 = biological target: FUS, P35637
Experimental: as §1

G3BP2, Q9UN86 = biological target: G3BP2, Q9UN86
Experimental: as §1

GABARAPL2, P60520 = biological target: GABARAPL2, P60520
Experimental: as §1

GAR1, Q9NY12 = biological target: GAR1, Q9NY12
Experimental: as §1

HIRIP3, Q9BW71 = biological target: HIRIP3, Q9BW71
Experimental: as §1

HNRNPA0, Q13151 = biological target: HNRNPA0, Q13151
Experimental: as §1

HNRNPA1, P09651 = biological target: HNRNPA1, P09651
Experimental: as §1

HNRNPA2B1, P22626 = biological target: HNRNPA2B1, P22626
Experimental: as §1

HNRNPA3, P51991 = biological target: HNRNPA3, P51991
Experimental: as §1

HNRNPU, Q00839 = biological target: HNRNPU, Q00839
Experimental: as §1

KHDRBS1, Q07666 = biological target: KHDRBS1, Q07666
Experimental: as §1

LSM12, Q3MHD2 = biological target: LSM12, Q3MHD2
Experimental: as §1

LSM14A, Q8ND56 = biological target: LSM14A, Q8ND56
Experimental: as §1

LUC7L3, O95232 = biological target: LUC7L3, O95232
Experimental: as §1

MAPK1IP1L, Q8NDC0 = biological target: MAPK1IP1L, Q8NDC0
Experimental: as §1

MTPN, P58546 = biological target: MTPN, P58546
Experimental: as §1

NOL9, Q5SY16 = biological target: NOL9, Q5SY16
Experimental: as §1

PCLAF, Q15004 = biological target: PCLAF, Q15004
Experimental: as §1

PLS3, P13797 = biological target: PLS3, P13797
Experimental: as §1

POLR2D, O15514 = biological target: POLR2D, O15514
Experimental: as §1

RBM3, P98179 = biological target: RBM3, P98179
Experimental: as §1

SERF2, P84101 = biological target: SERF2, P84101
Experimental: as §1

SF1, Q15637 = biological target: SF1, Q15637
Experimental: as §1

SFPQ, P23246 = biological target: SFPQ, P23246
Experimental: as §1

SMNDC1, O75940 = biological target: SMNDC1, O75940
Experimental: as §1

STMN2, Q93045 = biological target: STMN2, Q93045
Experimental: as §1

SUGP1, Q8IWZ8 = biological target: SUGP1, Q8IWZ8
Experimental: as §1

UQCRFS1, P47985 = biological target: UQCRFS1, P47985
Experimental: as §1

ZNF706, Q9Y5V0 = biological target: ZNF706, Q9Y5V0
Experimental: as §1

hCG_2014768 = biological target: hCG_2014768
Experimental: as §1

B1: GAS5 (peptide)
chain: MVLGADAVWLWIAPY
PRISMA enrichment of interactor (log2) (ALYREF, Q86V81): 5.99
PRISMA enrichment of interactor (log2) (BOLA3, Q53S33): 4.48
PRISMA enrichment of interactor (log2) (C19orf53, Q9UNZ5): 6.99
PRISMA enrichment of interactor (log2) (CAPRIN1, Q14444): 5.75
PRISMA enrichment of interactor (log2) (CHTOP, Q9Y3Y2): 5.98
PRISMA enrichment of interactor (log2) (CIRBP, Q14011): 5.63
PRISMA enrichment of interactor (log2) (CKS2, P33552): 5.01
PRISMA enrichment of interactor (log2) (COPE, O14579): 5.6
PRISMA enrichment of interactor (log2) (CSRP2, Q16527): 6.94
PRISMA enrichment of interactor (log2) (DERPC, P0CG12): 5.11
PRISMA enrichment of interactor (log2) (EIF4H, Q15056): 5.39
PRISMA enrichment of interactor (log2) (EWSR1, Q01844): 7.24
PRISMA enrichment of interactor (log2) (FAM168B, A1KXE4): 4.89
PRISMA enrichment of interactor (log2) (FKBP2, P26885): 4.16
PRISMA enrichment of interactor (log2) (FUS, P35637): 6.69
PRISMA enrichment of interactor (log2) (G3BP2, Q9UN86): 6.04
PRISMA enrichment of interactor (log2) (GABARAPL2, P60520): 5.98
PRISMA enrichment of interactor (log2) (GAR1, Q9NY12): 4.73
PRISMA enrichment of interactor (log2) (HIRIP3, Q9BW71): 5.22
PRISMA enrichment of interactor (log2) (HNRNPA0, Q13151): 5.17
PRISMA enrichment of interactor (log2) (HNRNPA1, P09651): 5.8
PRISMA enrichment of interactor (log2) (HNRNPA2B1, P22626): 5
PRISMA enrichment of interactor (log2) (HNRNPA3, P51991): 5.42
PRISMA enrichment of interactor (log2) (HNRNPU, Q00839): 5.28
PRISMA enrichment of interactor (log2) (KHDRBS1, Q07666): 6.63
PRISMA enrichment of interactor (log2) (LSM12, Q3MHD2): 5.44
PRISMA enrichment of interactor (log2) (LSM14A, Q8ND56): 4.4
PRISMA enrichment of interactor (log2) (LUC7L3, O95232): 4.83
PRISMA enrichment of interactor (log2) (MAPK1IP1L, Q8NDC0): 3.78
PRISMA enrichment of interactor (log2) (MTPN, P58546): 4.52
PRISMA enrichment of interactor (log2) (NOL9, Q5SY16): 4.38
PRISMA enrichment of interactor (log2) (PCLAF, Q15004): 4.98
PRISMA enrichment of interactor (log2) (PLS3, P13797): 5.8
PRISMA enrichment of interactor (log2) (POLR2D, O15514): 4.98
PRISMA enrichment of interactor (log2) (RBM3, P98179): 4.92
PRISMA enrichment of interactor (log2) (SERF2, P84101): 5.67
PRISMA enrichment of interactor (log2) (SF1, Q15637): 4.55
PRISMA enrichment of interactor (log2) (SFPQ, P23246): 5.27
PRISMA enrichment of interactor (log2) (SMNDC1, O75940): 4.45
PRISMA enrichment of interactor (log2) (STMN2, Q93045): 3.82
PRISMA enrichment of interactor (log2) (SUGP1, Q8IWZ8): 3.8
PRISMA enrichment of interactor (log2) (UQCRFS1, P47985): 6.2
PRISMA enrichment of interactor (log2) (ZNF706, Q9Y5V0): 3.75
PRISMA enrichment of interactor (log2) (hCG_2014768): 4.93
